# Laboratory results: PubChem BioAssay AID602196 (INSERM, 2012)
# Test: 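Genes whose knock-down alters cisplatin killing of lung cancer cells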
# Cell system: human A549 lung cancer cells
# Reagent: siRNA pair against human genes
# Duration: 48 h transfection before cisplatin; time from cisplatin to read-out not stated
# Treatment: cisplatin at a dose killing half of control-siRNA cells; exact dose and duration not given
# Detection: 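Shift in cisplatin death relative to control siRNA, from -50 (all cells die) to +50 (no cells die); siRNAs harmful on their own scored 0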
# Scale: two-siRNA summed score (-2 to +2): higher = both siRNAs protect from cisplatin killing; -2 means both sensitise
# Active means: 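Each siRNA scores 0 if harmful alone by LDH or WST-1, otherwise +1 if it reduces and -1 if it increases cisplatin killing; a gene is active when both siRNAs agree (sum +2 or -2)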
# Calls: active = both siRNAs shift cisplatin killing the same way; inactive = no consistent shift, or siRNA harmful alone
# Shown is one part, drawn at random, of about 23,000 reagents tested. 455 of them (2%) were called active. 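Active includes both protection and sensitisation; some change values fall well beyond the stated -50 to +50 range.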 Further read-outs or replicates are left out here. The record does not give: the amount of reagent.
gene,two-siRNA summed score (-2 to +2),call
LOC388174,0,inactive
LOC391598,1,inactive
GABRA1,0,inactive
LOC442130,1,inactive
LDB3,0,inactive
IGFL1,1,inactive
VSTM4,0,inactive
DIP2C,1,inactive
MT1B,0,inactive
PPIAP80,0,inactive
RAB11A,0,inactive
CCDC180,0,inactive
CCT3,-1,inactive
EFNB1,1,inactive
ACTL7A,1,inactive
BPIFB4,-1,inactive
DLX2,0,inactive
ARNT2,0,inactive
SSX5,0,inactive
LOC390877,1,inactive
CSTF1,0,inactive
STAR,-1,inactive
AUP1,-1,inactive
CHRNB2,1,inactive
SYNDIG1,0,inactive
OR10J3,0,inactive
CCDC138,0,inactive
CD302,0,inactive
PARP2,0,inactive
LOC390846,-1,inactive
INO80,0,inactive
IFNA6,0,inactive
TLR10,0,inactive
SRP54,0,inactive
KCNJ11,0,inactive
IKZF2,0,inactive
NXF5,0,inactive
ANKRD33,0,inactive
LOC400847,0,inactive
SCGB2A1,0,inactive
SLC39A12,0,inactive
ST7,0,inactive
TULP3,0,inactive
TPST1,0,inactive
ZNF331,-1,inactive
LOC400651,0,inactive
MICALL2,0,inactive
OR2T4,1,inactive
LOC440915,0,inactive
SMYD1,-1,inactive
TRIM44,0,inactive
TNIK,1,inactive
PYROXD1,0,inactive
DEFB108B,0,inactive
ZNF512,0,inactive
LINC01114,0,inactive
LOC441551,1,inactive

Targets listed so far whose target name starts with M or m:
gene,two-siRNA summed score (-2 to +2),call
MT1B,0,inactive
MICALL2,0,inactive
